This is one part of the list.
How the values were obtained:
Assay in all cases: log2 fold change, soluble protein after heating vs DMSO (PISA); higher = thermal stabilisation; K562 cells, 10 uM, 30 min; active = over 0.2 and 3.5 SD of the protein, either way, in both replicates (recomputed)
[1] = compound: CC1=C(C=C(C=C1)NC(=O)C2=CC(=CC=C2)C(C)(C)C#N)NC3=CC4=C(C=C3)N=CN(C4=O)C
Method in brief: (§1)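 For each measurement, 10 μM compound was applied for 30 min to K562 cells at 2×10^6 cells/mL. Aliquots were heated for 3 min across 48°C-58°C, pooled, and extracted in PBS with 0.5% NP-40 at 4°C; the supernatant after 21,000xg for 90 min was soluble protein. This was quantified by TMTpro 16plex LC-MS/MS with channel sums equalised, and thermal stability was reported relative to control samples from duplicates, on a log2 fold-change scale.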

Amino acid sequences for entries named in this document (tags omitted). A change or cut given only in a name is not applied to a line headed by its entry.
UniProt Q15906, whole entry, looked up: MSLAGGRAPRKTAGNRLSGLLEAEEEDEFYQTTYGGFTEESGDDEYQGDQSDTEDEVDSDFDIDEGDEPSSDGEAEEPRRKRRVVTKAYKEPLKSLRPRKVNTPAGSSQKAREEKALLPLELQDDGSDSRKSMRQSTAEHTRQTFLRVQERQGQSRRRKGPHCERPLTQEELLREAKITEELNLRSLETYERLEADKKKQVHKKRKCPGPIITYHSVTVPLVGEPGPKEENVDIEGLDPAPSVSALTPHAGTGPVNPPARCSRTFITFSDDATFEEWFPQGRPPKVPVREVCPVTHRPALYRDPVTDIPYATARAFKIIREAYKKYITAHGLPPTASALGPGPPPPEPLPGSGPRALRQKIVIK
UniProt O75717: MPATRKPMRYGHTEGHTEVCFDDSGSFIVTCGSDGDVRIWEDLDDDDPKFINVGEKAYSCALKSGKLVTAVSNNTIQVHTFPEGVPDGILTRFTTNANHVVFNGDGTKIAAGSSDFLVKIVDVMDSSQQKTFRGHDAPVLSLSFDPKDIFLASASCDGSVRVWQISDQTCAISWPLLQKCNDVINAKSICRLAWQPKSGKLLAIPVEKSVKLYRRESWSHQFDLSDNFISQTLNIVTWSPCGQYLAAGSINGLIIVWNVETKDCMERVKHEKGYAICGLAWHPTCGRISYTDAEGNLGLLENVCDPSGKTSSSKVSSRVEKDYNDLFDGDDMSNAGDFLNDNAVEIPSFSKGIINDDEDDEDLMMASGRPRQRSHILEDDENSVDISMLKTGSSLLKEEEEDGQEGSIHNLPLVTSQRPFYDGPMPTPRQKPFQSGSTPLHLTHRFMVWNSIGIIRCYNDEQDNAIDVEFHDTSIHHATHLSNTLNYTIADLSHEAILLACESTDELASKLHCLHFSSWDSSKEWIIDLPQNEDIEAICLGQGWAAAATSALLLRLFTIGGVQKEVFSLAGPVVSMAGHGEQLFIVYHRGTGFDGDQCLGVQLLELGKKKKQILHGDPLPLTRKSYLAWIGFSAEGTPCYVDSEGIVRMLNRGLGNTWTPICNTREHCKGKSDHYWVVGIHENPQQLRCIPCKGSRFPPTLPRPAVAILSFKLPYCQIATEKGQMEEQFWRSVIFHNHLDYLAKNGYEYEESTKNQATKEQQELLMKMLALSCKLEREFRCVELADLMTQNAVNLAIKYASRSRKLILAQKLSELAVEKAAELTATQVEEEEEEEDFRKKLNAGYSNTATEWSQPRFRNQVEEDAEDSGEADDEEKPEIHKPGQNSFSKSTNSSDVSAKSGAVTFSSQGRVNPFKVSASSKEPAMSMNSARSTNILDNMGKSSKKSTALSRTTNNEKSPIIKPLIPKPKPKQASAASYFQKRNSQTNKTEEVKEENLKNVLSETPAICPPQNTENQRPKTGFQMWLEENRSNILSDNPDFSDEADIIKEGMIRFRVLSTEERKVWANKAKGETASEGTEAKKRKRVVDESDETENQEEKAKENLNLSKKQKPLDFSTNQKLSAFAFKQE
UniProt P40337, whole entry, looked up: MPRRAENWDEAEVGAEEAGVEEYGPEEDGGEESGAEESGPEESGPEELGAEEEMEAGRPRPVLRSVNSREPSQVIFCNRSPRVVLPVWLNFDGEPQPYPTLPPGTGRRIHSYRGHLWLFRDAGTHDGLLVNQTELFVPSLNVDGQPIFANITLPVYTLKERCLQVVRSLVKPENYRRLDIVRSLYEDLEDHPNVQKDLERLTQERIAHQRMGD
UniProt O43516: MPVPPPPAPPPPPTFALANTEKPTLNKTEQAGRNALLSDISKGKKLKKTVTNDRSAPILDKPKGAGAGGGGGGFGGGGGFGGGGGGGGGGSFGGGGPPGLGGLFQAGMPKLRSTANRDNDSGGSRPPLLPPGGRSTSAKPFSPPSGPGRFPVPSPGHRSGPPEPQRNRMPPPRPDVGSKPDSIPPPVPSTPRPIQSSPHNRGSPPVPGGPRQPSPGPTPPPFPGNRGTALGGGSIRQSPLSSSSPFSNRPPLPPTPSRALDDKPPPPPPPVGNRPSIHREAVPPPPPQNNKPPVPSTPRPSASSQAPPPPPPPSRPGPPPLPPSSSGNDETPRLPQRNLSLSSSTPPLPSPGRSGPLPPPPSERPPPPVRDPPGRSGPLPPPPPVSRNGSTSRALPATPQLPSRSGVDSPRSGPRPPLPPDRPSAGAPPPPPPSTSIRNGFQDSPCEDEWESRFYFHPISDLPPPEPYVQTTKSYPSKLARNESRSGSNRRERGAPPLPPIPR
UniProt P98170, whole entry, looked up: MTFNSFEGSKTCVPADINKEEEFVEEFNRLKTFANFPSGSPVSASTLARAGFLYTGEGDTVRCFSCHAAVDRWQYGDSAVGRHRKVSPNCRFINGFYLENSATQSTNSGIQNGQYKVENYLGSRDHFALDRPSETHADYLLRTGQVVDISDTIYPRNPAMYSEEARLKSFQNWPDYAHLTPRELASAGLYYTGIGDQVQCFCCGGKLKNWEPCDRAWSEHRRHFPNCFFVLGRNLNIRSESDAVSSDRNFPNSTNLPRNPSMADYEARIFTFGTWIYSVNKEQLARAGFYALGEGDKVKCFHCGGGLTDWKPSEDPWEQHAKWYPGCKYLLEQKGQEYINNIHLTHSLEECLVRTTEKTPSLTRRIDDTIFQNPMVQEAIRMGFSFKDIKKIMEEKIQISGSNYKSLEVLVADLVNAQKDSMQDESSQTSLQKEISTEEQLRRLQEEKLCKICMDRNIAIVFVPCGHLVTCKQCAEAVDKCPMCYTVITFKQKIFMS
UniProt Q9H7M9, whole entry, looked up: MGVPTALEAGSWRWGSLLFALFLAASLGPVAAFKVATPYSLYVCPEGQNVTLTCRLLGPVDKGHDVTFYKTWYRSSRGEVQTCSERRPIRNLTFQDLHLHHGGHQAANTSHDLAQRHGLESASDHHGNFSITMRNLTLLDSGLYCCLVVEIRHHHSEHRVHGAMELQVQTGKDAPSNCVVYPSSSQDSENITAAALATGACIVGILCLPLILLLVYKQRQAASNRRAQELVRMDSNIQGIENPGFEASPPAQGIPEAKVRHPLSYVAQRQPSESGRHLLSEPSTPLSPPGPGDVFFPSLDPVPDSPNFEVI
UniProt Q7Z5U6: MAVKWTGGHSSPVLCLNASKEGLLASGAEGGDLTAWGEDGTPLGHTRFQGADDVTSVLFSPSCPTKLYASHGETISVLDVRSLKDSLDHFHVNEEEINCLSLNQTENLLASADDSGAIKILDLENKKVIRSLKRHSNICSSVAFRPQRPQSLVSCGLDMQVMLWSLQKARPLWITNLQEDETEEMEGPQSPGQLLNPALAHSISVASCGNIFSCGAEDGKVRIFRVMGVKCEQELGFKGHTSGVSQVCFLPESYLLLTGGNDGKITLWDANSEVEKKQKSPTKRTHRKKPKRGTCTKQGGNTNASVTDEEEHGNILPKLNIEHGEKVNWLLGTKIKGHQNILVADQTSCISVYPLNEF
UniProt Q12768: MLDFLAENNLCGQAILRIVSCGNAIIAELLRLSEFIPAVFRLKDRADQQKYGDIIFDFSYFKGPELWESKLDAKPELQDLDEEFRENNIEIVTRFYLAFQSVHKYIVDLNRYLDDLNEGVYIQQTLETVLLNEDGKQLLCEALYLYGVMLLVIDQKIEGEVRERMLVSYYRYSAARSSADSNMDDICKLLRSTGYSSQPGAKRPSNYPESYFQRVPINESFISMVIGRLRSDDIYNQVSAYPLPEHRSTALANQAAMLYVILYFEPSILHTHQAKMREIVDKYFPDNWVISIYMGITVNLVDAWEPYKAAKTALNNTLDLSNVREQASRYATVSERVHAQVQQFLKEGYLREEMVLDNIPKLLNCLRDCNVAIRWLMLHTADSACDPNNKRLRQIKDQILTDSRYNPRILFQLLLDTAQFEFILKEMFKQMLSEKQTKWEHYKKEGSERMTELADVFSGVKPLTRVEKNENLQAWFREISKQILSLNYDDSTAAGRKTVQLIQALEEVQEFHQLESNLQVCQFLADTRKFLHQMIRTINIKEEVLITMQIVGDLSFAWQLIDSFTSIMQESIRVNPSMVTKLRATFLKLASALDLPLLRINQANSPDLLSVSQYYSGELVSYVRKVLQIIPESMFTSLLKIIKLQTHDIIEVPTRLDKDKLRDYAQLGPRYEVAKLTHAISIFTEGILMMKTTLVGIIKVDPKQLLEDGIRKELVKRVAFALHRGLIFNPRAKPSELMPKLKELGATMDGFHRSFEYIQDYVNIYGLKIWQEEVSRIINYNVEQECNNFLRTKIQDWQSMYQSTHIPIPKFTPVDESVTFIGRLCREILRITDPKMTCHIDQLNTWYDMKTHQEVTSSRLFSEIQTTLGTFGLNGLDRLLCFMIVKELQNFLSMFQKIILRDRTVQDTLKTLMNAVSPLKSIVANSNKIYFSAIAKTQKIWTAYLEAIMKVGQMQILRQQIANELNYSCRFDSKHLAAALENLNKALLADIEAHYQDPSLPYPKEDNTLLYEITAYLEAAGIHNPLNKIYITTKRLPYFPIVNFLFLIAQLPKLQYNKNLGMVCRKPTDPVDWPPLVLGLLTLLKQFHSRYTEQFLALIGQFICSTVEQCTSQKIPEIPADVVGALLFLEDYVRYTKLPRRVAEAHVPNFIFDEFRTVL
UniProt Q14135: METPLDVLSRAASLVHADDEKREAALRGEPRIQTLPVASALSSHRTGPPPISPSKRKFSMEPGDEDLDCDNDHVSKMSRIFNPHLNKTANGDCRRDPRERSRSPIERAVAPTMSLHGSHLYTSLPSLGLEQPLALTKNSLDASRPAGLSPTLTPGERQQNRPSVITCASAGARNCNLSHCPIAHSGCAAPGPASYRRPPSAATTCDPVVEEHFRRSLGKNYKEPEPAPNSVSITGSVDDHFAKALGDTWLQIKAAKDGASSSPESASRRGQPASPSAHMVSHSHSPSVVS
UniProt P30291: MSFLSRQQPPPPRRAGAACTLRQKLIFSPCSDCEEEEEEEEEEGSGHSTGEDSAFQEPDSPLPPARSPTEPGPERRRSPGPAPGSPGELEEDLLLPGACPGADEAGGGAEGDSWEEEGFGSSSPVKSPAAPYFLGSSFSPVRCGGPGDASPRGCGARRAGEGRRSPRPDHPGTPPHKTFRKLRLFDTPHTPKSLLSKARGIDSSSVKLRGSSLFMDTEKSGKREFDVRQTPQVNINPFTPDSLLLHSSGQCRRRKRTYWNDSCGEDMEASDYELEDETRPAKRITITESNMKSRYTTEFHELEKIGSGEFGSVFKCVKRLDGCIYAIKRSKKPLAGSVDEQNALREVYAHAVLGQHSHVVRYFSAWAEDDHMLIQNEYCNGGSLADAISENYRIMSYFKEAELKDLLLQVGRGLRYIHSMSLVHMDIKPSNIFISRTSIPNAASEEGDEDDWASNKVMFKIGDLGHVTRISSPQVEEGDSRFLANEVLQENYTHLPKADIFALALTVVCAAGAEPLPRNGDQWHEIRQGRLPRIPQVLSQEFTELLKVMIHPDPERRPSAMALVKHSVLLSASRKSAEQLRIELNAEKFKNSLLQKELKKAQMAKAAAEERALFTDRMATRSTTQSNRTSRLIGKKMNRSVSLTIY
UniProt Q3ZAQ7: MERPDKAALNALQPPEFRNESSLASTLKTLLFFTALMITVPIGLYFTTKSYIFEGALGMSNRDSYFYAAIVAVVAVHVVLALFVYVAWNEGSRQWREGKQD
UniProt Q96EX3: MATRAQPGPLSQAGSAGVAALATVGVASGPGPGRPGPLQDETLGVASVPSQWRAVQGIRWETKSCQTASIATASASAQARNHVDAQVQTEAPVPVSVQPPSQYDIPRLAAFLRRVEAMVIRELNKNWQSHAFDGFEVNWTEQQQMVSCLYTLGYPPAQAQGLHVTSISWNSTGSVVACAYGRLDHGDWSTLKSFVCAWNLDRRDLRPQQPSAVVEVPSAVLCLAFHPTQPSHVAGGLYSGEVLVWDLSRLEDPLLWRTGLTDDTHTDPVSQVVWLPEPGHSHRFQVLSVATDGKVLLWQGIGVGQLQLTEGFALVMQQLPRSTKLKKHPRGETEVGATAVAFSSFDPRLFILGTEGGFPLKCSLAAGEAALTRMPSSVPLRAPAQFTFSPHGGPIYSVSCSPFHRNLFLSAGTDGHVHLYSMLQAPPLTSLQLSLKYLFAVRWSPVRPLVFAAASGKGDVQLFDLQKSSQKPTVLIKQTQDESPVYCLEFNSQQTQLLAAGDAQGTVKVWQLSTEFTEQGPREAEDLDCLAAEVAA
UniProt Q5MNZ9: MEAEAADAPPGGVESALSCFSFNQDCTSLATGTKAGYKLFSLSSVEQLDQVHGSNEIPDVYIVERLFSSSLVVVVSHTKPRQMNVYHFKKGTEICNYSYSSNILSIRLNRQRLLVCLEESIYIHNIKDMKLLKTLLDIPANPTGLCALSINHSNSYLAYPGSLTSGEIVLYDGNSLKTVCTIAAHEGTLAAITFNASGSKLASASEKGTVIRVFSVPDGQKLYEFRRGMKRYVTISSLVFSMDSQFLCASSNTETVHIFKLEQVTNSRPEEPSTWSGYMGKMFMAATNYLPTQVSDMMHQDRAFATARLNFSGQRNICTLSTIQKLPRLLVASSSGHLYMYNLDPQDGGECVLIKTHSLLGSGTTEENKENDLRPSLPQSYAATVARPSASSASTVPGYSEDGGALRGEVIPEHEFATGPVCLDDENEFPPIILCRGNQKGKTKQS

[2] = compound: CC1=C(C=C(C=C1)NC(=O)C2=CC(=CC=C2)N(C)C)NC(=O)C3=CC=C(C=C3)O
Method in brief: as §1

[3] = compound: CC1=CC=C(C=C1)SC2=C3C=C(SC3=CN=C2)C(=O)N
Method in brief: as §1

[4] = compound: CC1=NC(=CC=C1)C2=C(N=C(N2)C(C)(C)C)C3=CC4=NC=CN=C4C=C3
Method in brief: as §1

Nexturastat A = compound: CCCCN(Cc1ccc(C(=O)NO)cc1)C(=O)Nc1ccccc1 [Nexturastat A]
Method in brief: as §1

vemurafenib = compound: CCCS(=O)(=O)Nc1ccc(F)c(C(=O)c2c[nH]c3ncc(-c4ccc(Cl)cc4)cc23)c1F [vemurafenib]
Method in brief: as §1

[5] = compound: CCCS(=O)(=O)Nc1ccc(F)c(C(=O)c2c[nH]c3ncc(Cl)cc23)c1F
Method in brief: as §1

[6] = compound: CCCc1cc(C)[nH]c(=O)c1CNC(=O)c1cc(-c2ccnc(N3CCN(C)CC3)c2)cc2c1cnn2C(C)C
Method in brief: as §1

givinostat = compound: CCN(CC)Cc1ccc2cc(COC(=O)Nc3ccc(C(=O)NO)cc3)ccc2c1 [givinostat]
Method in brief: as §1

barasertib = compound: CCN(CCCOc1ccc2c(Nc3cc(CC(=O)Nc4cccc(F)c4)[nH]n3)ncnc2c1)CCOP(=O)(O)O [barasertib]
Method in brief: as §1

[7] = compound: CC[C@@H]1C(=O)N(C)c2cnc(Nc3ccc(C(=O)NC4CCN(C)CC4)cc3OC)nc2N1C1CCCC1
Method in brief: as §1

volasertib = compound: CC[C@@H]1C(=O)N(C)c2cnc(Nc3ccc(C(=O)N[C@H]4CC[C@H](N5CCN(CC6CC6)CC5)CC4)cc3OC)nc2N1C(C)C [volasertib]
Method in brief: as §1

[8] = compound: CC[C@H](C)N1C=C(C2=C(C=C(C=C21)C3=CN=C(C=C3)N4CCNCC4)C(=O)NCC5=C(C=C(NC5=O)C)C)C
Method in brief: as §1

epoxomicin = compound: CC[C@H](C)[C@@H](C(=O)N[C@@H]([C@@H](C)O)C(=O)N[C@@H](CC(C)C)C(=O)[C@]1(CO1)C)NC(=O)[C@H]([C@@H](C)CC)N(C)C(=O)C [epoxomicin]
Method in brief: as §1

[9] = compound: CCn1cc(-c2ccnc3[nH]c(-c4cccc(CN(C)C)c4)cc23)c(-c2ccc(NC(=O)N(C)C)cc2)n1
Method in brief: as §1

[10] = compound: CN(C)CC(=O)Nc1ccc2[nH]c(=O)c3ccccc3c2c1
Method in brief: as §1

[11] = compound: CN1C2=C(C3=C1C(=O)N(N=C3)CC4=CC(=CC=C4)N)SC(=C2)S(=O)C
Method in brief: as §1

[12] = compound: CN1CCC(CNc2ccc3ncc(-c4cccc(OC(F)(F)F)c4)n3n2)CC1
Method in brief: as §1

rosiglitazone = compound: CN(CCOC1=CC=C(C=C1)C[C@H]2C(=O)NC(=O)S2)C3=CC=CC=N3 (racemic) [rosiglitazone]
Method in brief: as §1

[13] = compound: CCn1c(C(=O)N(C2CC2)C2CC2)cc2c3c(ncn3C)c(Nc3cc(C)n(C)n3)nc21
Method in brief: as §1

Measured: log2 fold change

VRK2 (UniProt Q86Y07)
inactive: [1] -0.072 | [2] -0.05 | [3] 0.01 | [4] 0.015 | Nexturastat A 0.04 | vemurafenib 0.006 | [5] 0.044 | [6] 0.025 | givinostat 0.03 | barasertib 0.01 | [7] 0.034 | volasertib -0.049 | [8] 0.054 | epoxomicin 0.021 | [9] -0.005 | [10] -0.009 | [11] -0.04
active: [12] 0.229

VKORC1 (UniProt Q9BQB6)
inactive: [1] 0.064 | [2] -0.04 | [3] 0.001 | vemurafenib -0.023 | [5] 0.117 | [6] -0.017 | givinostat -0.006 | barasertib 0.048 | [7] -0.006 | volasertib -0.079 | [8] -0.088 | [9] 0.008 | [10] 0.072 | [11] 0.03 | [12] -0.09
active: [4] -0.325

WDR46, A0A0G2JJL1
inactive: [1] -0.161 | [3] -0.229 | [4] -0.254 | Nexturastat A 0.194 | vemurafenib -0.09 | [5] 0.078 | [6] 0.19 | givinostat 0.15 | barasertib -0.248 | [7] 0.388 | volasertib 0.37 | [8] -0.068 | epoxomicin -0.451 | [10] -0.183 | [11] 0.215

WDR81 (UniProt Q562E7)
inactive: [1] -0.029 | [2] -0.046 | [4] -0.16 | Nexturastat A 0.064 | barasertib 0.065 | [8] 0.186 | epoxomicin -0.208 | rosiglitazone 0.007

VPS72 isoform 2 (UniProt Q15906)
inactive: [1] -0.051 | [2] 0.196 | [3] 0.05 | Nexturastat A -0.17 | vemurafenib 0.025 | [5] -0.028 | [6] -0.042 | givinostat -0.014 | barasertib 0.001 | [7] -0.261 | volasertib 0.135 | [8] -0.072 | epoxomicin -0.107 | [10] -0.052 | [11] 0.043

WDHD1 (UniProt O75717)
active: volasertib -0.458
inactive: [1] 0.057 | [2] -0.043 | [3] 0.013 | [4] 0.072 | Nexturastat A -0.053 | vemurafenib 0.066 | [5] 0.095 | [6] 0.022 | givinostat 0.053 | barasertib 0.055 | [7] -0.209 | [8] 0.079 | epoxomicin 0.071 | [9] -0.033 | [10] 0.051 | [11] -0.063 | [12] -0.118

WASHC3 (UniProt Q9Y3C0)
active: [12] -0.245
inactive: [1] 0.011 | [2] 0.015 | [3] 0.049 | [4] -0.008 | Nexturastat A -0.051 | vemurafenib 0.005 | [5] -0.006 | [6] -0.08 | givinostat 0.004 | barasertib 0.017 | [7] -0.015 | volasertib -0.066 | [8] -0.058 | epoxomicin 0.067 | [9] 0.007 | [10] -0.002 | [11] -0.03

VHL (UniProt P40337)
inactive: [1] 0.181 | [2] 0.05 | [7] 0.138 | [11] -0.087

WIPF1 isoform 3 (UniProt O43516)
inactive: [1] -0.081 | [2] -0.044 | [3] 0.272 | [4] -0.035 | vemurafenib -0.04 | [5] -0.071 | [6] -0.844 | givinostat 0.09 | barasertib 0.028 | [7] -0.001 | volasertib 0.124 | [8] 0.025 | [13] 0.097 | [9] -0.024 | [10] -0.162 | rosiglitazone -0.073 | [11] 0.178 | [12] -0.096

XIAP (UniProt P98170)
active: volasertib -0.457
inactive: [1] -0.047 | [3] -0.045 | Nexturastat A -0.045 | vemurafenib 0.035 | [5] 0 | [6] -0.049 | givinostat 0.019 | barasertib 0 | [7] -0.135 | [8] 0.094 | epoxomicin 0 | [9] 0 | [10] 0.071 | [11] -0.101 | [12] -0.131

VSIR (UniProt Q9H7M9)
inactive: [1] -0.032 | [2] 0.001 | [4] -0.129 | Nexturastat A -0.057 | vemurafenib 0.023 | [6] -0.03 | givinostat 0.021 | barasertib -0.087 | [7] 0.107 | [8] -0.039 | epoxomicin 0.03 | [13] 0.01 | [9] 0.036 | [10] -0.017 | rosiglitazone -0.056 | [12] 0.169

WDR53 (UniProt Q7Z5U6)
inactive: [1] 0.032 | [2] -0.128 | [3] 0.019 | [4] 0.136 | vemurafenib 0.035 | [5] 0.033 | [6] 0 | givinostat -0.033 | barasertib 0.003 | [7] -0.021 | volasertib -0.008 | [13] 0.015 | [9] 0.015 | [10] -0.148 | rosiglitazone -0.02 | [11] 0.068 | [12] 0.037

WASHC5 (UniProt Q12768)
inactive: [1] -0.011 | [2] -0.011 | [3] 0 | [4] -0.006 | Nexturastat A 0.052 | vemurafenib 0.004 | [5] 0.004 | [6] 0.065 | givinostat 0.085 | barasertib 0.077 | [7] -0.109 | volasertib -0.268 | [8] 0.09 | epoxomicin 0.049 | [9] 0.035 | [10] 0.045 | [11] -0.006 | [12] -0.114

Copied from the listing (two entries):
WIPF1 isoform 3 (UniProt O43516)
inactive: [1] -0.081 | [2] -0.044 | [3] 0.272 | [4] -0.035 | vemurafenib -0.04 | [5] -0.071 | [6] -0.844 | givinostat 0.09 | barasertib 0.028 | [7] -0.001 | volasertib 0.124 | [8] 0.025 | [13] 0.097 | [9] -0.024 | [10] -0.162 | rosiglitazone -0.073 | [11] 0.178 | [12] -0.096

XIAP (UniProt P98170)
active: volasertib -0.457
inactive: [1] -0.047 | [3] -0.045 | Nexturastat A -0.045 | vemurafenib 0.035 | [5] 0 | [6] -0.049 | givinostat 0.019 | barasertib 0 | [7] -0.135 | [8] 0.094 | epoxomicin 0 | [9] 0 | [10] 0.071 | [11] -0.101 | [12] -0.131

(continued)

VGLL4 isoform 4 (UniProt Q14135)
inactive: [1] -0.111 | [2] -0.179 | [3] -0.141 | [4] 0.068 | Nexturastat A 0.027 | vemurafenib 0.047 | [5] -0.09 | [6] 0.04 | givinostat 0.005 | barasertib -0.026 | volasertib -0.09 | [8] -0.005 | epoxomicin 0.013 | [13] 0.001 | [9] 0.001 | [10] -0.01 | rosiglitazone 0.1 | [12] -0.084

WEE1 (UniProt P30291)
inactive: [1] -0.037 | [2] 0.02 | [3] -0.304 | [4] -0.046 | Nexturastat A 0.322 | vemurafenib 0 | [5] 0 | [6] -0.137 | givinostat 0.037 | barasertib -0.005 | volasertib 0.07 | [8] -0.028 | epoxomicin 0.203 | [9] -0.209 | [10] -0.103 | [11] 0.046 | [12] 0.195

VCX3B (UniProt Q9H321)
inactive: [1] 0.032 | [3] 0.064 | Nexturastat A 0.029 | vemurafenib -0.038 | [5] 0.041 | [6] -0.001 | givinostat -0.008 | barasertib 0.052 | [7] -0.003 | volasertib -0.018 | [8] -0.078 | epoxomicin -0.063 | [13] 0.001 | [9] 0.032 | [10] -0.042 | rosiglitazone 0.014 | [11] -0.026 | [12] -0.113

VMA21 (UniProt Q3ZAQ7)
inactive: [1] 0.035 | [3] -0.037 | [4] 0.015 | Nexturastat A 0.007 | vemurafenib 0.053 | [5] 0.031 | [6] 0.047 | givinostat -0.006 | barasertib 0.055 | [7] 0.03 | volasertib 0.01 | [8] -0.111 | epoxomicin 0.113 | [13] 0.032 | [9] -0.157 | [10] 0.047 | rosiglitazone -0.048 | [12] 0.236

WDR34 (UniProt Q96EX3)
inactive: [1] -0.072 | [2] 0.232 | [3] 0.041 | [4] -0.023 | Nexturastat A 0.098 | vemurafenib -0.032 | [5] 0.02 | [6] 0.207 | givinostat 0.027 | barasertib 0.084 | volasertib -0.174 | [8] 0.14 | epoxomicin -0.116 | [13] -0.004 | [9] 0.049 | [10] -0.13 | rosiglitazone -0.007 | [11] -0.245 | [12] -0.065

WIPI1 (UniProt Q5MNZ9)
inactive: [1] -0.085 | [2] 0.03 | [3] -0.051 | [4] 0.018 | Nexturastat A 0.05 | [5] -0.139 | [6] -0.126 | givinostat 0 | barasertib 0.029 | [7] -0.089 | volasertib 0.023 | [8] 0.017 | epoxomicin -0.057 | [13] 0.063 | [9] -0.066 | rosiglitazone 0.037 | [11] -0.038 | [12] -0.219

WDR46 (UniProt O15213)
inactive: [1] 0.039 | [2] -0.021 | [3] -0.001 | [4] -0.102 | Nexturastat A 0.216 | vemurafenib -0.135 | [5] -0.026 | [6] 0.136 | givinostat -0.05 | barasertib -0.064 | [7] 0.195 | volasertib 0.073 | [8] -0.085 | epoxomicin -0.417 | [9] 0.288 | [10] -0.2 | [11] 0.311 | [12] 0.389

Reference: the supplement of paper PMC10849652
